For this experiment, the target named is V1-FAM134B2/V2-FAM134B2 (human) (UniProt Q9H6L5). The experiment can be described thus: co-IP; IP of the GFP tag in C2C12 cells expressing V1/V2-FAM134B1 or V1/V2-FAM134B2, Western blot for Lc3b and Gabarap.

Protein sequences, listed by entry. Tags and fused reporters are not part of them. Lines headed by an entry give the natural chain unless they say otherwise; changes in a name come on top. Chains listed by the source or under a name are the forms on record and can include a tag or linker.
V1-FAM134B2/V2-FAM134B2 (Q9H6L5, form named): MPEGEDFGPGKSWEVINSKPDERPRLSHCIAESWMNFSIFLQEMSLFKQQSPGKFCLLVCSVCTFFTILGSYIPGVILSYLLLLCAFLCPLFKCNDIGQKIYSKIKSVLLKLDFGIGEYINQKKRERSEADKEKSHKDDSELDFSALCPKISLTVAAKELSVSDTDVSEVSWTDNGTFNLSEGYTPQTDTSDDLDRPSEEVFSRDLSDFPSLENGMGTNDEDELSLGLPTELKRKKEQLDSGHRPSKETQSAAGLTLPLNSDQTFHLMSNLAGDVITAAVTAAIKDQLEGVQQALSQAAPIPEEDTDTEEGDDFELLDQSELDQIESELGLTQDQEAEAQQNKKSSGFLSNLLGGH
UniProt Q9DCD6: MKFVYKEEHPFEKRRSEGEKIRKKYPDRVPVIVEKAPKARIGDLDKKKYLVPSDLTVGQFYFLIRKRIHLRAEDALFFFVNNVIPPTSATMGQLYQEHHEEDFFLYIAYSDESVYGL

Results are given in words; binding and its absence hold for the method and conditions named. Binding seen in cells or lysates may run through a third protein. Some results given as binding are weak or reduced against the parent protein; the word gives no strength.

On to “Gabarap (endogenous) (from UniProt Q9DCD6 1-117)”, for which the binding entry was “binds”.

The values above are taken from PMC11832904.
